Reference: PMC6572064, “Discovery of 2-(1-(3-(4-Chloroxyphenyl)-3-oxo- propyl)pyrrolidine-3-yl)-1H-benzo[d]imidazole-4-carboxamide: A Potent Poly(ADP-ribose) Polymerase (PARP) Inhibitor for Treatment of Cancer” (Molecules, 2019)

Tested on: CAPAN-1 (a BRCA-2-mutated pancreatic cancer cell line)
Assay: Cell proliferation assay, three-day, CellTiter-Glo, CAPAN-1
Format: cell-based
Details: for Inh % 1: replicate 1; for Inh % 2: replicate 2
Protocol: A three-day assay was conducted. A cell suspension was prepared. Cell density was counted by an automated cell counter and then diluted to the required density, according to seeding density. 50 μL cells were seeded into 384-well plate in growth medium according to the plate map. The cells were incubated at 37 °C, 5% CO2 overnight.
200× compound solution in DMSO was prepared and diluted with growth medium to 26× final concentration by addition of 26 μL 200× compounds to 174 μL growth medium. Then 2 μL of diluted compound solution was added to cells and the cell was incubated at 37 °C, 5% CO2 for 72 h.
The assay plate was equilibrated to room temperature prior to measurement. 15 μL of CellTiter-Glo Reagent was added into each well and the contents were mixed for 2 min on an orbital shaker to induce cell lysis. The cells were incubated at room temperature for 60 min to stabilize luminescent signal. Luminescence was recorded on the Envision system.

CN[C@@H]1C[C@H]2O[C@@](C)([C@@H]1OC)n1c3ccccc3c3c4c(c5c6ccccc6n2c5c31)C(=O)NC4 [STS, reference compound]
Inh % 1 (CAPAN-1, Conc. 0.000254 uM): 10.9%
Inh % 2 (CAPAN-1, Conc. 0.000254 uM): 3.2%
Inh % 1 (CAPAN-1, Conc. 0.000762 uM): 12.8%
Inh % 2 (CAPAN-1, Conc. 0.000762 uM): 15.5%
Inh % 2 (CAPAN-1, Conc. 0.00229 uM): 26.4%
Inh % 1 (CAPAN-1, Conc. 0.00686 uM): 27.0%
Inh % 2 (CAPAN-1, Conc. 0.00686 uM): 38.5%
Inh % 1 (CAPAN-1, Conc. 0.02 uM): 36.6%
Inh % 2 (CAPAN-1, Conc. 0.02 uM): 34.5%
Inh % 1 (CAPAN-1, Conc. 0.06 uM): 54.1%
Inh % 2 (CAPAN-1, Conc. 0.06 uM): 48.7%
Inh % 1 (CAPAN-1, Conc. 0.19 uM): 73.5%
Inh % 2 (CAPAN-1, Conc. 0.19 uM): 73.7%
Inh % 1 (CAPAN-1, Conc. 0.56 uM): 90.1%
Inh % 2 (CAPAN-1, Conc. 0.56 uM): 89.3%
Inh % 1 (CAPAN-1, Conc. 1.67 uM): 93.3%
Inh % 2 (CAPAN-1, Conc. 1.67 uM): 93.5%
Inh % 1 (CAPAN-1, Conc. 5.00 uM): 95.9%
Inh % 2 (CAPAN-1, Conc. 5.00 uM): 96.2%
LogIC50 (CAPAN-1, curve fit, plate 1): -1.189 Log (uM)
